# Test results as given in the supplement of paper PMC12823440, “Inhibitors supercharge kinase turnover through native proteolytic circuits” (Nature, 2025).
# Protein sequences, listed by entry. Tags and fused reporters are not part of them.
# UniProt P36888, whole entry: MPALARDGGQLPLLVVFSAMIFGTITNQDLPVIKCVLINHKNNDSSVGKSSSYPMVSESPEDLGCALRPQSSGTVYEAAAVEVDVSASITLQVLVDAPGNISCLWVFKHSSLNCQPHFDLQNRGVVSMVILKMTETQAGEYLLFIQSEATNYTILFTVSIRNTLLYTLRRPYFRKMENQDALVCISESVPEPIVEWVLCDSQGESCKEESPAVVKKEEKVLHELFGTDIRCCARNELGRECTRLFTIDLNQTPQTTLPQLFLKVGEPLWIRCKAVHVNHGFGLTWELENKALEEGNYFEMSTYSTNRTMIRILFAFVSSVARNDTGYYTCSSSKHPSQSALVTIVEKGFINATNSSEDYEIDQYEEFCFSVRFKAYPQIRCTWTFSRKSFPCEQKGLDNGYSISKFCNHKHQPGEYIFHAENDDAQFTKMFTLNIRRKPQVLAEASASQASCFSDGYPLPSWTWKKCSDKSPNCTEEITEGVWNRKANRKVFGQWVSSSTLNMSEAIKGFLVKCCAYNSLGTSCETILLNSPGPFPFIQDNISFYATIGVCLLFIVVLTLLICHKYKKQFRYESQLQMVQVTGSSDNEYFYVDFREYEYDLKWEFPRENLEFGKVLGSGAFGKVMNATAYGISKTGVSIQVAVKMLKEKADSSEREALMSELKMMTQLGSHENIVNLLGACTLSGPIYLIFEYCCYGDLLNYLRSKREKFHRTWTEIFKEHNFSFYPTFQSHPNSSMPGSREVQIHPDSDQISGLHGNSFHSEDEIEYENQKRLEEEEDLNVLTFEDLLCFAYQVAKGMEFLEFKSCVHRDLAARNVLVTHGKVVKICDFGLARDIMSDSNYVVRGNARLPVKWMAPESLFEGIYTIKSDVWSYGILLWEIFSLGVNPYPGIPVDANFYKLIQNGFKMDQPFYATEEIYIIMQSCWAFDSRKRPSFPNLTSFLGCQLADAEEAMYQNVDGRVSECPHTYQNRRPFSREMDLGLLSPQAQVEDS
# This is one part of the list. The calls rarely recur for the same compound in another form.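 Kinases were expressed as nanoluciferase fusions in K562 cells and luminescence was read every 4 h between 2 and 18 h as percent of control, DMSO set to 100% and a positive control to 0%. A time point counts as decreased when the signal drops significantly (2 sigma). The hit call is the authors' own, does not follow from the count of time points alone, and its rule is not shown.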
# Molecular target: FGR (UniProt P09769)
# Assay: kinase-Nluc reporter destabilization hit call (1 = scored as downregulated) (binary); higher = compound decreases kinase abundance
# Settings: K562; 2-18 h
row,Compound,kinase-Nluc reporter destabilization hit call
1,O=[N+]([O-])/C=C/c1ccc2c(c1)OCO2 (2.5 µM),inactive: 0
2,CC(=O)O[C@H]1[C@H]2[C@@H](OC(=O)Cc3ccccc3)[C@@H](C)C[C@]2(OC(C)=O)C(=O)/C(C)=C/[C@@H]2[C@H](CC[C@@]13CO3)C2(C)C [Euphorbiasteroid] (10 µM),inactive: 0
3,Cc1[nH]ncc1-c1cc2nc([C@H]3CC4CCN3CC4)[nH]c(=O)c2s1 [(R)-Simurosertib] (10 µM),inactive: 0
4,N#CC(C#N)=Cc1ccc(O)c(O)c1 [Tyrphostin 23] (10 µM),inactive: 0
5,CC1C(=O)OC2C(O)C34C5OC(=O)C3(OC3OC(=O)C(O)C34C(C(C)(C)C)C5O)C12O (configuration not stated) [Ginkgolide C] (10 µM),inactive: 0
6,COc1ccc2c(c1)/C(=C/c1cnc[nH]1)C(=O)N2 (2.5 µM),inactive: 0
7,C[S+]([O-])/C=C/CCN=C=S (configuration not stated) [Sulforaphene] (10 µM),inactive: 0
8,N#CC(C#N)=Cc1ccc([N+](=O)[O-])c(O)c1 (10 µM),inactive: 0
9,Cn1cc(C2=C(c3cn(C4CCN(Cc5ccccn5)CC4)c4ccccc34)C(=O)NC2=O)c2ccccc21 [Enzastaurin] (10 µM),inactive: 0
10,O=C(/C=C/c1ccccc1)OC[C@H]1O[C@@H](O[C@@H]2OC=C[C@H]3[C@H](O)[C@@H]4O[C@]4(CO)[C@@H]23)[C@H](O)[C@@H](O)[C@@H]1O [Picroside I] (10 µM),inactive: 0

# Molecular target: FLT3 (UniProt P36888)
# Assay: as above
# Settings: K562; 2-18 h
row,Compound,kinase-Nluc reporter destabilization hit call
1,Cc1ccccc1-n1c(Cn2cnc3c(N)ncnc32)nc2cccc(C)c2c1=O (10 µM),inactive: 0
2,C=C[C@H]1CN2CC[C@]3(C(=O)Nc4ccccc43)[C@@H]2C[C@@H]1/C(=C\OC)C(=O)OC [Corynoxeine] (2 µM),inactive: 0
3,O=C1C=CC[C@@H]2[C@H]3CCCN4CCC[C@@H](CN12)[C@@H]34 [Sophocarpine (monohydrate)] (2.5 µM),inactive: 0
4,O=c1ccc2cc(O[C@@H]3O[C@H](CO)[C@@H](O)[C@H](O)[C@H]3O)c(O)cc2o1 [Esculin] (10 µM),inactive: 0
5,O=c1[nH]c2ccccc2n1C1CCN(CCCC(c2ccc(F)cc2)c2ccc(F)cc2)CC1 [Pimozide] (2.5 µM),inactive: 0
6,C[C@@H]1CC[C@H]2[C@@H](C)C(=O)O[C@@H]3O[C@@]4(C)CC[C@@H]1[C@]32OO4 [Artemisinin] (10 µM),inactive: 0
7,COc1ccc2c(c1OC)C(OC)N(C)c1c-2ccc2cc3c(cc12)OCO3 (configuration not stated) [Angoline] (10 µM),inactive: 0
8,C[C@H]1CC[C@]2(NC1)O[C@H]1C[C@H]3[C@@H]4CC[C@H]5C[C@@H](O[C@@H]6O[C@H](CO)[C@H](O[C@@H]7O[C@H](CO)[C@@H](O)[C@H](O[C@@H]8OC[C@@H](O)[C@H](O)[C@H]8O)[C@H]7O[C@@H]7O[C@H](CO)[C@@H](O)[C@H](O)[C@H]7O)[C@H](O)[C@H]6O)CC[C@]5(C)[C@H]4CC[C@]3(C)[C@H]1[C@@H]2C [Tomatine] (2.5 µM),inactive: 0
9,CN(C)C(=O)c1ccc(Cn2c(C(=O)O)cc3c(Br)cc(Sc4ccc(Cl)c(Cl)c4)cc32)cc1 [Rheb inhibitor NR1] (10 µM),inactive: 0
10,COc1ccc(/C=C/c2cc(OC)c(OC)c(OC)c2)cc1 (2.5 µM),inactive: 0
11,C/C(O)=C(\C#N)C(=O)Nc1cc(Br)ccc1Br (10 µM),inactive: 0
12,Cc1n[nH]cc1-c1cc2nc([C@@H]3CC4CCN3CC4)[nH]c(=O)c2s1 [Simurosertib] (2.5 µM),inactive: 0
13,O=c1[nH]c2ccccc2n1C1CCN(Cc2ccc(-c3[nH]c4cc5ncnc5cc4nc3-c3ccccc3)cc2)CC1 [AKT inhibitor VIII] (2.5 µM),inactive: 0
14,CCOC(=O)c1c(/C(C#N)=C\N)c2ccc(Cl)c(Cl)c2n1C (10 µM),inactive: 0
15,O=C(N[C@@H](COc1ccc2[nH]c(=O)[nH]c2c1)c1ccccc1)c1cccn(Cc2ccc(F)c(F)c2)c1=O (2.5 µM),inactive: 0
16,CC1=C[C@]23C(=O)[C@@H](C=C(CO)[C@@H](O)[C@]2(O)[C@H]1O)[C@H]1[C@@H](C[C@H]3C)C1(C)C [Ingenol] (10 µM),inactive: 0
17,N#CC(C#N)=NNc1cccc(Cl)c1 (2.5 µM),inactive: 0

# A different layout for part of the listing above.
row	Compound	kinase-Nluc reporter destabilization hit call
5	O=c1[nH]c2ccccc2n1C1CCN(CCCC(c2ccc(F)cc2)c2ccc(F)cc2)CC1 [Pimozide] (2.5 µM)	inactive: 0
6	C[C@@H]1CC[C@H]2[C@@H](C)C(=O)O[C@@H]3O[C@@]4(C)CC[C@@H]1[C@]32OO4 [Artemisinin] (10 µM)	inactive: 0
7	COc1ccc2c(c1OC)C(OC)N(C)c1c-2ccc2cc3c(cc12)OCO3 (configuration not stated) [Angoline] (10 µM)	inactive: 0
8	C[C@H]1CC[C@]2(NC1)O[C@H]1C[C@H]3[C@@H]4CC[C@H]5C[C@@H](O[C@@H]6O[C@H](CO)[C@H](O[C@@H]7O[C@H](CO)[C@@H](O)[C@H](O[C@@H]8OC[C@@H](O)[C@H](O)[C@H]8O)[C@H]7O[C@@H]7O[C@H](CO)[C@@H](O)[C@H](O)[C@H]7O)[C@H](O)[C@H]6O)CC[C@]5(C)[C@H]4CC[C@]3(C)[C@H]1[C@@H]2C [Tomatine] (2.5 µM)	inactive: 0
9	CN(C)C(=O)c1ccc(Cn2c(C(=O)O)cc3c(Br)cc(Sc4ccc(Cl)c(Cl)c4)cc32)cc1 [Rheb inhibitor NR1] (10 µM)	inactive: 0
